Results are given as percent effect.
The controls that fix the scale are not given in the record; negative values are as filed.
This is an unselected part of the compounds tested.

By UniProt entry, the sequences of proteins in these tests, tags left out. Residues count along the entry.
UniProt A4I591, 1-473: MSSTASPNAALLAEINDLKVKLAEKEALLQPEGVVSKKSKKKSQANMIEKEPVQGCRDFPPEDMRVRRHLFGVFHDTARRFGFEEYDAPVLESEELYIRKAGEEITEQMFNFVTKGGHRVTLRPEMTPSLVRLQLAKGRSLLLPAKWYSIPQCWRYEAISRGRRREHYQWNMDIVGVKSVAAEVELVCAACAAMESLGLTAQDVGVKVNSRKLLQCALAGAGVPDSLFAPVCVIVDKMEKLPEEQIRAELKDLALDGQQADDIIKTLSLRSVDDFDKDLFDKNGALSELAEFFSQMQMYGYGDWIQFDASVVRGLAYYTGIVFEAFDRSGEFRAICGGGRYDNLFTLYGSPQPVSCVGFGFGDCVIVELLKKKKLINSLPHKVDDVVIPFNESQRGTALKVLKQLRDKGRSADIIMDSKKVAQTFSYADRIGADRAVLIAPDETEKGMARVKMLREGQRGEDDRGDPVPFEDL

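Enzyme assay of histidyl-tRNA synthetase; the read-out is not stated. Target: Histidine-tRNA ligase, Leishmania infantum (UniProt A4I591). Concentration: 30 µM. The record gives no direction; compounds that gave an IC50 in retests scored well above the rest, so higher reads as stronger inhibition. The assay is labelled LdHisRS but filed under L. infantum. Of about 69,000 compounds tested this way, about 410 (0.6%) reached 50% or more in at least one test.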

* Cc1nn(C)cc1S(=O)(=O)NC1(CN2CCOCC2)CCCCC1 : 6.207%
* O=C1CCC(=O)N1CCN1CCC(=Cc2ccccc2)CC1 : 22.22%
* CC(C)C(C(=O)N1CCC(N(C)c2cccnn2)CC1)n1cncn1 (stereo unspecified) : 0%
* COCCCC1(C(=O)O)CCCN(C(=O)c2ccc(Cl)cc2F)C1 (stereo unspecified) : 8.861%
* CCc1nnsc1C(=O)NC(CC(C)C)C(=O)OC (stereo unspecified) : 7.527%
* CCOCCNC(=O)c1cccc(S(=O)(=O)NC[C@@H]2C[C@H](F)CN2)c1 : 16%
* CCc1n[nH]c(C2CN(C(=O)CCn3ccccc3=O)CCO2)n1 (stereo unspecified) : 7.018%
* O=C(NCC(O)COc1cccc(F)c1)c1ccoc1 (stereo unspecified) : 15%
* O=C(CC1CCCO1)N1CCCN(c2cccnn2)CC1 (stereo unspecified) : 5.357%
* CC(C)c1nccn1-c1nccnc1C1CCCN1Cc1ccccc1 (stereo unspecified) : 33.8%
* Cc1ccc(NC(=O)C2CCCN2C(=O)C2CC2)nc1 (stereo unspecified) : 20%
* NC(=O)N1C[C@@H]2CN(C(=O)c3ccco3)C[C@@H]2C1 : 15.53%
* CCOc1cc(CNCc2nc(C)cc(=O)[nH]2)c(Cl)cc1OC(C)C : 15.87%
* CCN1CCC2(CC1)CC(NC(=O)NC)c1cc(C)ccc12 (stereo unspecified) : 26.42%
* CCC(=O)Nc1nnc(CCOc2ccc(OC)cc2)s1 : 1.724%
* COCCO[C@H]1CCN(C(=O)C2CCOCC2)[C@H]1Cc1ccncc1 : 9.489%
* Cc1ccc(CN2C[C@@H]3[C@@H](C(=O)NCC4CC4)CCS(=O)(=O)[C@@H]3C2)cc1 : 9.722%
* NC1CCCCN(Cc2ccccc2CS(=O)(=O)c2ccccc2)C1 (stereo unspecified) : 19.35%
* CCc1ccc(S(=O)(=O)Nc2cnccc2C)s1 : 26.44%
* O=C(Nc1nccs1)C1CCCN1Cc1ccccn1 (stereo unspecified) : 9.91%
* CN(C)c1nccc(CNC(=O)NCc2ccco2)n1 : 6.667%
* CCOc1ccc(NS(=O)(=O)c2cc(C)c(C(=O)O)s2)c(C)c1 : 11.48%
* Cc1nn(C)c(C)c1C1CCCN1CC(=O)Nc1cc(C(C)C)no1 (stereo unspecified) : 12.73%
* O=C(CCN1CCOC1=O)Nc1cnn(-c2ccccc2Cl)c1 : 16.36%
* O=C1C(NCc2ccccc2O)CCN1Cc1ccccc1 (stereo unspecified) : 15.05%
* COC(=O)CCC(=O)N1CCc2[nH]nc(-c3ccc(F)c(F)c3)c2C1 : 7.547%
* c1cnc(N2CCN(Cn3nccc3-c3cccnc3)CC2)nc1 : 18.32%
* CSC(C)C(=O)NS(=O)(=O)CCc1ccccc1 (stereo unspecified) : 1.667%
* O=c1cc(CN(CCO)C2CC2)nc2ccc(Br)cn12 : 21.67%
* CCC1=N[C@@]2(CC[C@@H]3CN(S(=O)(=O)CC(C)C)C[C@@H]32)C(=O)N1C : 14.56%

The first 2 entries again:

* Cc1nn(C)cc1S(=O)(=O)NC1(CN2CCOCC2)CCCCC1 | 6.207%
* O=C1CCC(=O)N1CCN1CCC(=Cc2ccccc2)CC1 | 22.22%

Data taken from ChEMBL document CHEMBL3988442, “University of Dundee, Small-Polar-MMV Screening Library” (2021).